Source: PubChem BioAssay AID1224904 (Broad Institute, 2016).

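293T-iDUX4 cells carrying a ZSCAN4-driven Gaussia luciferase and a tet-on Italica luciferase control; the gap between the two luminescence signals is read after 24 h. The test concentration is not given here. Percent difference between the Gaussia and Italica channels; more negative values mean more selective suppression of the DUX4 reporter, and higher values mean less activity.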

Values are in %. The controls that fix the scale are not given here. Common to all entries: measured here: selective DUX4 reporter inhibition. Part of the compounds only, not a random draw; the main read-out is not listed here. An entry listed twice with the same setting is a separate test.

| compound | Gaussia minus Italica difference (%) |
|---|---|
| `COc1cccc(-c2ccc3c(c2)[C@H]2[C@H](CCN2C(=O)c2ccc4c(c2)OCO4)[C@H](CO)N3C)c1` | 13.51 |
| `COc1ccc2c3c([nH]c2c1)[C@H](CO)N(S(C)(=O)=O)CC31CCN(Cc2ccccc2)CC1` | 16.7 |
| `C[C@@H]1CN([C@@H](C)CO)C(=O)c2c(c3ccccc3n2C)-c2ccccc2CO[C@H]1CN(C)C(=O)[C@H](Cc1ccccc1)N(C)C` | 2.183 |
| `O=C(C[C@@H]1CC[C@H]2[C@@H](COC[C@@H](O)CN2Cc2ccc(Oc3ccccc3)cc2)O1)N1CCN(c2ccccc2)CC1` | 2.106 |
| `COc1cccc(-c2ccc3c(c2)[C@H]2[C@H](CCN2C(=O)c2ccc4c(c2)OCO4)[C@@H](CO)N3C)c1` | 1.226 |
| `C[C@H]1CN([C@@H](C)CO)C(=O)CCCn2cc(nn2)CO[C@@H]1CN(C)C(=O)Nc1ccc2c(c1)OCO2` | -19.07 |
| `N#C[C@H]1[C@H](c2ccccc2-c2ccc(F)cc2)[C@H](CO)N1C(=O)NC1CCCCC1` | 1.022 |
| `COc1cccc(C#Cc2ccc3c(c2)[C@@H]2[C@@H](CCN2C(=O)c2ccccc2F)[C@@H](CO)N3C)c1` | -14.82 |
| `C[C@@H]1CN([C@H](C)CO)C(=O)CCCn2nncc2CO[C@H]1CN(C)Cc1ccc(-c2ccccc2)cc1` | -7.454 |
| `COc1ccc2c3c(n(C)c2c1)[C@@H](CO)N(C(=O)c1ccccc1)CC31CN(CC2CC2)C1` | -11.09 |
| `O=C(C1CCC1)N1CC2(C1)[C@H](c1ccccc1)[C@@H](CO)N2Cc1ccc(Cl)cc1` | -12.49 |
| `COc1ccc2c3c(n(C)c2c1)[C@H](CO)N(C(=O)c1ccccc1)CC31CCN(C(=O)c2ccccc2)CC1` | -2.847 |
| `Cc1ccc(S(=O)(=O)N2C[C@@H](O)COC[C@H]3O[C@H](CC(=O)NCc4ccc(Cl)c(Cl)c4)CC[C@@H]32)cc1` | -16.08 |
| `COc1ccccc1CN1C[C@@H](C)[C@H](OC)CN(C)C(=O)c2cc(NC(=O)Nc3ccccc3OC)ccc2OC[C@H]1C` | -2.519 |
| `O=C(Nc1cccc(F)c1)N1CCCCN2[C@H](CO)[C@@H](c3ccc(C#Cc4cccnc4)cc3)[C@@H]2C1` | -18.75 |
| `CC(C)[C@H](C)NC(=O)N(C)C[C@H]1OCc2ccccc2-c2c(n(C)c3ccccc23)C(=O)N([C@@H](C)CO)C[C@@H]1C` | -18.14 |
| `O=C(C[C@@H]1CC[C@@H]2[C@H](COC[C@@H](O)CN2Cc2cccc(C(F)(F)F)c2)O1)NCc1ccc(Cl)cc1` | -20.64 |
| `CO[C@@H]1CN(C)C(=O)c2cc(NC(=O)c3ccc(Oc4ccccc4)cc3)ccc2OC[C@@H](C)NC[C@@H]1C` | 27 |
| `O=C(C1CCCCC1)N1CC2(C1)[C@H](c1ccccc1)[C@H](CO)N2CCC(F)(F)F` | -9.284 |
| `O=C(C[C@H]1CC[C@@H]2[C@H](COC[C@@H](O)CN2Cc2cccc(-c3ccncc3)c2)O1)N1CCN(c2ccccc2)CC1` | -4.939 |
| `N#C[C@H]1[C@@H](c2ccccc2-c2ccccc2)[C@@H](CO)N1C(=O)NC1CCCC1` | -0.9873 |
| `Fc1ccc(-c2ccc(C3[C@@H]4CN(Cc5ccccc5)C[C@H]3N4)cc2)cc1` (stereo partly shown) | -11.6 |
| `O=C(c1cccc(F)c1)N1CCCCN2[C@H](CO)[C@H](c3ccc(C#CC4(O)CCCC4)cc3)[C@H]2C1` | -24.98 |
| `COc1cccc(NC(=O)N2CC(=O)N3[C@H](CO)[C@H](c4ccc(C#CCC5CCCC5)cc4)[C@H]3C2)c1` | -5.187 |
| `Fc1cccc(-c2ccc([C@@H]3[C@@H]4CN(Cc5nccs5)C[C@H]3N4)cc2)c1` | -15.16 |
| `CN(C)C(=O)c1cccc(-c2ccc(C3[C@@H]4CN(Cc5ccccc5F)C[C@H]3N4)cc2)c1` (stereo partly shown) | -20.67 |
| `N#C[C@@H]1[C@H](c2ccccc2C2=CCCCC2)[C@H](CO)N1C(=O)Nc1ccccc1F` | 0.3168 |
| `Cc1cccc(S(=O)(=O)N2CCCCN3[C@H](CO)[C@H](c4ccc(-c5ccncc5)cc4)[C@@H]3C2)c1` | -24.37 |
| `Fc1ccc(-c2ccc(C3[C@@H]4CN(Cc5ccccc5)C[C@H]3N4)cc2)cc1` (stereo partly shown) | 7.876 |
| `O=C(Nc1nccs1)[C@@H]1[C@@H](CO)[C@@H]2Cn3c(ccc(-c4cccnc4)c3=O)[C@@H]2N1CC1CCCC1` | 0.4218 |
| `O=C(c1ccc2c(c1)OCO2)N1CC(=O)N2[C@H](CO)[C@@H](c3ccc(C#Cc4ccccc4)cc3)[C@@H]2C1` | -6.809 |
| `COc1cc(CN2CC3(CN(S(=O)(=O)c4cccs4)C3)c3c(n(C)c4cc(OC)ccc34)[C@@H]2CO)cc(OC)c1` | 7.536 |
| `COc1ccc2c3c([nH]c2c1)[C@H](CO)N(Cc1ccc(F)cc1)CC31CCN(C)CC1` | 9.739 |
| `O=C(Nc1ccc(Cl)cc1)N[C@@H]1CC[C@@H](CCn2cc(-c3ccccc3F)nn2)O[C@H]1CO` | -6.02 |
| `Cc1ccc(S(=O)(=O)N2CC[C@@H]3[C@H]2c2cc(-c4cccc(C(=O)N(C)C)c4)ccc2N[C@@H]3CO)cc1` | 10.81 |
| `N#C[C@H]1[C@H](c2ccccc2-c2ccc(F)cc2)[C@@H](CO)N1C(=O)NC1CCCCC1` | -6.537 |
| `CCS(=O)(=O)N1CCC2(CC1)CN(S(=O)(=O)c1ccccc1)[C@@H](CO)c1c2c2ccc(OC)cc2n1C` | -17.59 |
| `N#C[C@H]1[C@@H](c2ccccc2C2=CCCCC2)[C@@H](CO)N1S(=O)(=O)c1ccccc1` | -5.528 |
| `O=C(C[C@H]1C[C@@H]2c3cc(NC(=O)Nc4ccccc4F)ccc3O[C@@H]2[C@@H](CO)O1)NCCc1ccccc1` | -18.12 |
| `O=C(C[C@@H]1CC[C@H]2[C@@H](COC[C@H](O)CN2CCc2ccccc2)O1)NCc1ccc(Oc2ccccc2)cc1` | -9.744 |
| `CN(C)C(=O)c1cccc(-c2ccc3c(c2)[C@@H]2[C@@H](CCN2C(=O)c2ccccc2)[C@H](CO)N3C)c1` | 5.735 |
| `COc1ccc(NC(=O)N2CCCCN3[C@H](C2)[C@@H](c2ccc(C#CCC(C)C)cc2)[C@@H]3CO)cc1` | -9.355 |
| `Cc1ccccc1-c1ccc([C@H]2[C@H]3CN(S(=O)(=O)c4ccc(F)cc4)CCCCN3[C@H]2CO)cc1` | -15.42 |
| `COc1ccc(S(=O)(=O)N2CC[C@@H]3[C@H](CO)Nc4ccc(-c5cccc(C#N)c5)cc4[C@@H]32)cc1` | 2.821 |
| `COc1ccc2c3c(n(C)c2c1)[C@H](CO)N(C(=O)Nc1ccc(F)cc1)CC31CCN(C(=O)c2ccc3c(c2)OCO3)CC1` | -4.676 |
| `COCC(=O)N1CC2(C1)CN(Cc1ccccc1Cl)[C@@H](CO)c1[nH]c3cc(OC)ccc3c12` | -0.5326 |
| `COc1ccc2c3c(n(C)c2c1)[C@H](CO)N(Cc1cccc(F)c1)CC31CCN(C(=O)Cc2ccccc2)CC1` | -6.339 |
| `O=C(C[C@H]1CC[C@@H]2[C@H](COC[C@H](O)CN2Cc2ccc(C(F)(F)F)cc2)O1)N1CCc2ccccc2C1` | -8.173 |
| `C[C@@H](NC(=O)C[C@H]1CC[C@@H]2[C@H](COC[C@H](O)CN2C(=O)Nc2cc(Cl)cc(Cl)c2)O1)c1ccccc1` | -2.706 |
| `O=C1CN(S(=O)(=O)c2ccccc2)C[C@@H]2[C@H](c3ccc(C#CCc4ccccc4)cc3)[C@H](CO)N12` | -21.96 |
| `COc1ccc2c3c([nH]c2c1)[C@@H](CO)N(C(=O)Nc1cccc(F)c1)CC31CCN(S(=O)(=O)c2cccc(C)c2)CC1` | 17.26 |
| `CCC(=O)N1CCCCN2[C@@H](CO)[C@@H](c3ccc(/C=C/c4ccccc4)cc3)[C@@H]2C1` | -16.98 |
| `Cc1ccccc1-c1ccc([C@@H]2[C@H](CO)N3CCCCN(S(=O)(=O)Cc4ccccc4)C[C@@H]23)cc1` | 1.435 |
| `CCCNC(=O)N1CC2(CN(Cc3ccc(OC)cc3)C2)c2c(n(C)c3cc(OC)ccc23)[C@@H]1CO` | -13.29 |
| `O=C(Cc1ccccn1)N[C@H]1CC[C@H](CCNS(=O)(=O)c2cccc(F)c2)O[C@H]1CO` | -7.401 |
| `O=S(=O)(Cc1ccccc1)N1CCCCN2[C@H](CO)[C@@H](c3ccc(-c4ccc(F)cc4)cc3)[C@H]2C1` | -5.75 |
| `COc1cccc(S(=O)(=O)N2C[C@@H]3N[C@H](C2)C3c2ccc(-c3ccccc3F)cc2)c1` (stereo partly shown) | -9.558 |
| `COc1ccc2c3c([nH]c2c1)[C@H](CO)N(Cc1ccccc1)CC31CCN(S(=O)(=O)c2ccc(C)cc2)CC1` | -21.46 |
| `O=C(C[C@H]1CC[C@H]2[C@@H](COC[C@@H](O)CN2CCC(F)(F)F)O1)N1CCC(Cc2ccccc2)CC1` | -8.553 |
| `N#Cc1ccc(-c2ccc([C@H]3[C@@H](CO)N4CCCCN(C(=O)Nc5ccc(F)cc5)C[C@@H]34)cc2)cc1` | 23.55 |

For reference, 3 entries once more:

O=C(C[C@H]1CC[C@@H]2[C@H](COC[C@@H](O)CN2Cc2cccc(-c3ccncc3)c2)O1)N1CCN(c2ccccc2)CC1 gave Gaussia minus Italica difference -4.939%.
COc1cc(CN2CC3(CN(S(=O)(=O)c4cccs4)C3)c3c(n(C)c4cc(OC)ccc34)[C@@H]2CO)cc(OC)c1 gave Gaussia minus Italica difference 7.536%.
O=C(Nc1ccc(Cl)cc1)N[C@@H]1CC[C@@H](CCn2cc(-c3ccccc3F)nn2)O[C@H]1CO gave Gaussia minus Italica difference -6.02%.